# The comparison behind a weaker result is the experiment's own reference, which may not be listed here. The exact form of at least one protein or probe is not confirmed. For part of these data: At least one verdict was read from the data and is not stated in words by the source.
# Chains of the proteins cited; added tags and fusions are not shown. A line that says so, or that is headed by a name, gives the form on record, which may keep a tag or linker. Residues count along the entry.
# UniProt P0AGE0, 2-178: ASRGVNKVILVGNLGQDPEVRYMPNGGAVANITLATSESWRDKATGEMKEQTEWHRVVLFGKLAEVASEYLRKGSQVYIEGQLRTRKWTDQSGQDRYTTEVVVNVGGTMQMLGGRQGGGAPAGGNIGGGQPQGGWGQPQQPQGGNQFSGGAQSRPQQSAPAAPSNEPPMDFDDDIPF
# RPA (yeast) (Saccharomyces cerevisiae), one chain, as listed by the source, chain 3 of 3: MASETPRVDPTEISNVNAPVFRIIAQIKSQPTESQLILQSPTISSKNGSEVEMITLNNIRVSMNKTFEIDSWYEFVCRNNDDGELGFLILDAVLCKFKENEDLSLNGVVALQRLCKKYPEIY
# RPA (yeast) (Saccharomyces cerevisiae), one chain, as listed by the source, chain 1 of 3: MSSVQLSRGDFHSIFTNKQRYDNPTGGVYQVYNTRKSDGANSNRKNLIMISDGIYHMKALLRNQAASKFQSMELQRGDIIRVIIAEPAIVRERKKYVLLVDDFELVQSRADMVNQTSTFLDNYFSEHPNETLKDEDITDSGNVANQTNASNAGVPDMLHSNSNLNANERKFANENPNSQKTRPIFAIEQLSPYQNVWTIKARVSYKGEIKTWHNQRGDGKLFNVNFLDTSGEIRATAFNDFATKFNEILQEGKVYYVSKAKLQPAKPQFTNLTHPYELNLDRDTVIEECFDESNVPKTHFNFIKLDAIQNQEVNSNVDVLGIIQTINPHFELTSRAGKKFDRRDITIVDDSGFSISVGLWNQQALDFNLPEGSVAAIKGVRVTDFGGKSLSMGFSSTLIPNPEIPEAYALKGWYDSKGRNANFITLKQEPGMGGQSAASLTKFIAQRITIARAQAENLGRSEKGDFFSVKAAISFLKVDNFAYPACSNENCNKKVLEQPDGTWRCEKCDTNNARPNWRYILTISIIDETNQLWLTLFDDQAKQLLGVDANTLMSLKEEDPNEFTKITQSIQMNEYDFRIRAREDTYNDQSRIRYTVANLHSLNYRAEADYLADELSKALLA
# RPA (yeast) (Saccharomyces cerevisiae), one chain, as listed by the source, chain 2 of 3: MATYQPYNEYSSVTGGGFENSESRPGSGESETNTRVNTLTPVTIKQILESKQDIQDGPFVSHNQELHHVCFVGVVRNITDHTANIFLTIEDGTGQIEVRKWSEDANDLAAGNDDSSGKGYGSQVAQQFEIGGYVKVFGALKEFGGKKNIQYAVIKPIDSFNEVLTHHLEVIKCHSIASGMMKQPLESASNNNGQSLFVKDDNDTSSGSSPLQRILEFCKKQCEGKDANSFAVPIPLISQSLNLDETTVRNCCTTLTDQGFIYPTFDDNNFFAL
# Assays:
# [1] = system: RPA (yeast) (Saccharomyces cerevisiae); experiment: competition (smFRET strand transfer); details: 10 mM Tris-HCl pH 7.5, 100 or 300 mM NaCl, 10% glycerol, 10 mM Trolox, 0.5% glucose, glucose oxidase/catalase, ~23 C, recombinant protein, single-stranded DNA
# SSB [2] = biological target: SSB (UniProt P0AGE0); experiment: competition (smFRET strand transfer); details: 300 mM NaCl, 10 mM Tris-HCl pH 7.5, 100 or 300 mM NaCl, 10% glycerol, 10 mM Trolox, 0.5% glucose, glucose oxidase/catalase, ~23 C, recombinant protein, single-stranded DNA
# SSB [3] = biological target: SSB (UniProt P0AGE0); experiment: competition with a labelled probe; details: up to 10 uM U50 does not displace SSB from dT70, 100 mM NaCl; 10 mM Tris-HCl pH 7.5, 100 or 300 mM NaCl, 10% glycerol, 10 mM Trolox, 0.5% glucose, glucose oxidase/catalase, ~23 C; recombinant protein
# [4] = system: RPA (yeast) (Saccharomyces cerevisiae); experiment: competition with a labelled probe; details: up to 10 uM U50 does not displace RPA from DNA (dT40), 100 mM NaCl; 10 mM Tris-HCl pH 7.5, 100 or 300 mM NaCl, 10% glycerol, 10 mM Trolox, 0.5% glucose, glucose oxidase/catalase, ~23 C; recombinant protein
sequence,measurement,setting,value
TTTTTTTTTTTTTTTTTTTT [dT20],binding result,"[1]; 100 nM competitor from dT40-RPA, rate jumps between dT20 and dT30",binds more weakly
TTTTTTTTTTTTTTTTTTTTTTTTTTTTTTTTTTTTTTTTTTTTTTTTTTTTTTT [dT55],binding result,"SSB [2]; 100 nM competitor from dT70-SSB, rate jumps between dT55 and dT60",binds more weakly
UUUUUUUUUUUUUUUUUUUUUUUUUUUUUUUUUUUUUUUUUUUUUUUUUU [U50],binding result,SSB [3],binds more weakly
same,binding result,[4],binds more weakly
TTTTTTTTTT [dT10],binding result,"[1]; 100 nM competitor from dT40-RPA, 100 mM NaCl",binds more weakly
TTTTTTTTTTTTTTTTTTTTTTTTTTTTTTTTTTTTTTTTTTTTTTTTTTTTTTTTTTTTTTTTTTTTTT [dT70],binding result,SSB [2]; 100 nM competitor from dT70-SSB,binds
TTTTTTTTTTTTTTTTTTTTTTTTTTTTTTTTTTTTTTTT [dT40],binding result,"SSB [2]; 100 nM competitor from dT70-SSB, slower than longer ssDNA",binds more weakly
TAAATTAATACGACTCACTATAGGGAGACCACAAGGTGAGGAGTAGGAATCCGTATCTATCAGCTCCAGG [Comp_mixed seq],binding result,SSB [2]; from mixed-sequence tethered DNA,binds
same,binding result,"[1]; from mixed-sequence tethered DNA, 100 mM NaCl",binds
